Results are given in words; binding and its absence hold for the method and conditions named. For some of these results: A result given as binding can be weak or reduced; the word gives no strength.
Legend:
Assay in all cases: two-hybrid; ORFs in prey vector pGADT7 (AD, yeast Y187) or bait vector pGBKT7 (BD, yeast Y2HGold), pairwise mating; diploids spotted (5 x 10^2, 5 x 10^3, 5 x 10^4 cells) on quadruple-dropout SDM/-Leu/-Trp/-Ade/-His/X-α-Gal/AbA, 3 days at 30 °C
Phr1 (B. bassiana) = target: T1, Phr1 (B. bassiana) (UniProt J4KQS2)
T1 sequence: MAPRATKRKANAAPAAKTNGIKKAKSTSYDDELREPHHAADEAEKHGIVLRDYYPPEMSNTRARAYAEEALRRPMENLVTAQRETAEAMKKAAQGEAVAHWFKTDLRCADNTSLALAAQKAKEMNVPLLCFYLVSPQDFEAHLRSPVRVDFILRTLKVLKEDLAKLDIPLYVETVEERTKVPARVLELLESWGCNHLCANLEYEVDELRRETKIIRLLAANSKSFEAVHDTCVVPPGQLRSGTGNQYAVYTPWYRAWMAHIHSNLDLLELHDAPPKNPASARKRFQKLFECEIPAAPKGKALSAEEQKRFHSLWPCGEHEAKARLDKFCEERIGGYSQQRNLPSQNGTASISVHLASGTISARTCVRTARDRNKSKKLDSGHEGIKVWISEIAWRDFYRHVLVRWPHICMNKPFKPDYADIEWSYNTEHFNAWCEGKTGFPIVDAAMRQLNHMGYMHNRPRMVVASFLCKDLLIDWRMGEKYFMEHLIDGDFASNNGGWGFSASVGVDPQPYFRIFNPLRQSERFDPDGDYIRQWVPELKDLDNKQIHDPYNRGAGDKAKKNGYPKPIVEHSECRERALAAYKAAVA

Phr2 (B. bassiana) = target: T2, Phr2 (B. bassiana) (UniProt J4WK53)
T2 sequence: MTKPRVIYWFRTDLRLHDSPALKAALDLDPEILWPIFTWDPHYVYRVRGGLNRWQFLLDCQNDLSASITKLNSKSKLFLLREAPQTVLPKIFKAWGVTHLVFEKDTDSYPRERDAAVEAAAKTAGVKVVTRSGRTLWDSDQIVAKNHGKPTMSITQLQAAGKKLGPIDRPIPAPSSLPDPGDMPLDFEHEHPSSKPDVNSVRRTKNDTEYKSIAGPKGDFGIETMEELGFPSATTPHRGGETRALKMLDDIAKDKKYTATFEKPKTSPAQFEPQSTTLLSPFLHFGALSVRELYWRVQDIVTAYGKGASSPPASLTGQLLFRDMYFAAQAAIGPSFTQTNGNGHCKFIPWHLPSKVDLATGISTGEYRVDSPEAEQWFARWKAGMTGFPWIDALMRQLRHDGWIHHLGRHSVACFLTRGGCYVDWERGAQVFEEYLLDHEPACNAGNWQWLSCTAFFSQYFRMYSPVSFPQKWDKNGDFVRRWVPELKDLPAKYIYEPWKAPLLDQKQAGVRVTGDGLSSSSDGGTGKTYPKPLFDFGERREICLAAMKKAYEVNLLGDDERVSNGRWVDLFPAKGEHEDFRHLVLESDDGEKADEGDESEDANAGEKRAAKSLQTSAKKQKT

Rad23 (B. bassiana) = Rad23 (B. bassiana) (UniProt J5K7R4)
Rad4B (B. bassiana) = Rad4B (B. bassiana) (UniProt J4URE3)
WC1 (B. bassiana) = target: T3, WC1 (B. bassiana) (UniProt J5J1K4)
T3 sequence: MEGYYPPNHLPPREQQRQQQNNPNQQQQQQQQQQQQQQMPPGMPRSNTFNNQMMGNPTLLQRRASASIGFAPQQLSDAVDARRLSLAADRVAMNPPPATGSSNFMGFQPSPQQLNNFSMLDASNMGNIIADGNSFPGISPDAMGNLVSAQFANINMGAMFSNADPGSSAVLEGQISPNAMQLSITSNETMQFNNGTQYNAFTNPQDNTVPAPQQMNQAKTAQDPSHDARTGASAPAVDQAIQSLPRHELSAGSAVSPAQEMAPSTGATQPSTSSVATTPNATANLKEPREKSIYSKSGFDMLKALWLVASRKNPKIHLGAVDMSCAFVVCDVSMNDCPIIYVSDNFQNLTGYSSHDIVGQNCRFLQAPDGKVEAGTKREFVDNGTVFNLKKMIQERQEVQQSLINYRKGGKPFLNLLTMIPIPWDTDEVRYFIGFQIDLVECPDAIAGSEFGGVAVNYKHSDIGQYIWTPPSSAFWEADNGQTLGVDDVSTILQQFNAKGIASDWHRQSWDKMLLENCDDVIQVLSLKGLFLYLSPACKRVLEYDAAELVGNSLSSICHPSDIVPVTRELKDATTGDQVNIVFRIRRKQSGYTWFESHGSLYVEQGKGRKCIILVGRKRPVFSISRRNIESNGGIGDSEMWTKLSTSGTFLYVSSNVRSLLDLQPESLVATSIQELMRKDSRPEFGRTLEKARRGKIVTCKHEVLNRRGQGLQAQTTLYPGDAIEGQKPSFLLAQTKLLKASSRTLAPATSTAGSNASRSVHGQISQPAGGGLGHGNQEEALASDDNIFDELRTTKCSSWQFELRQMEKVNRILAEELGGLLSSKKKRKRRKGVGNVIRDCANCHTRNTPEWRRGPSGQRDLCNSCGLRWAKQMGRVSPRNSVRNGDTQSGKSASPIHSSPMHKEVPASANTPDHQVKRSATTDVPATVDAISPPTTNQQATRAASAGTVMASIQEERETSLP

WC2 (B. bassiana) = target: T4, WC2 (B. bassiana) (UniProt J5JYA0)
T4 sequence: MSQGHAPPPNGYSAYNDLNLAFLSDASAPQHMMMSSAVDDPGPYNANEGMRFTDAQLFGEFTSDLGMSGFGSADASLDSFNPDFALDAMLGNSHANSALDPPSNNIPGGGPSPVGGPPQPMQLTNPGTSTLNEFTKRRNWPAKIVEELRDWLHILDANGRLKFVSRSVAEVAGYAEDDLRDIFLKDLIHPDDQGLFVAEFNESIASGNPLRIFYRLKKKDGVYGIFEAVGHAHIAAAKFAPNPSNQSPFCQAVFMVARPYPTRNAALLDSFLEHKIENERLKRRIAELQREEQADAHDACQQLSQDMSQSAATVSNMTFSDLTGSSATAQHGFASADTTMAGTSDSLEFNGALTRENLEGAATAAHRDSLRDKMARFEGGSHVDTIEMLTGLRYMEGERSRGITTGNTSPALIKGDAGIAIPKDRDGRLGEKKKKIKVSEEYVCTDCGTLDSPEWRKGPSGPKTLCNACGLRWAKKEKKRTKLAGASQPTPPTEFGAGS

Rad4A (from UniProt J5JSN3)
binding (Phr1 (B. bassiana)): no binding
binding (Phr2 (B. bassiana)): no binding
binding (Rad23 (B. bassiana)): binds
binding (Rad4B (B. bassiana)): no binding
binding (WC1 (B. bassiana)): no binding
binding (WC2 (B. bassiana)): no binding

Rad4B (from UniProt J4URE3)
binding (Phr1 (B. bassiana)): no binding
binding (Phr2 (B. bassiana)): no binding
binding (Rad23 (B. bassiana)): binds
binding (WC1 (B. bassiana)): no binding
binding (WC2 (B. bassiana)): no binding

Rad23 (from UniProt J5K7R4)
binding (WC1 (B. bassiana)): no binding
binding (WC2 (B. bassiana)): binds

Reference: article PMC9961694
